Primary screen of a compound library

Sequences of proteins named here, by UniProt entry; tags and fusion partners are left off. Residues count along the entry.
UniProt Q8IDJ8, 1-583: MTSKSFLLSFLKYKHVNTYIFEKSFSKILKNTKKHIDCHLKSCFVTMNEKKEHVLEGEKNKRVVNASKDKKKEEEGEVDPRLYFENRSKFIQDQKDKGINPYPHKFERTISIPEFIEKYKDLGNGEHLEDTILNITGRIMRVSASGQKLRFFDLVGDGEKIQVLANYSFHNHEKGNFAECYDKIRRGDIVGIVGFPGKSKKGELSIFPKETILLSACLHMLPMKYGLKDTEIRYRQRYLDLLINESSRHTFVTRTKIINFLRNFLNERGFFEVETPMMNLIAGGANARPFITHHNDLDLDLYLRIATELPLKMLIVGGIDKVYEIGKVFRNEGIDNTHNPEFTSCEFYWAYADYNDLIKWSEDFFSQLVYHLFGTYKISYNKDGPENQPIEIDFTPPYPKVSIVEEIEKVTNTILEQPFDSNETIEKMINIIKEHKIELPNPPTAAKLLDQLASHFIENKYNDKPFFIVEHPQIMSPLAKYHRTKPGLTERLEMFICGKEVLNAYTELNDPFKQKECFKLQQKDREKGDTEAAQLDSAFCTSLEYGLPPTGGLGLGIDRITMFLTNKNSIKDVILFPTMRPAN
UniProt I6X8D2, whole entry: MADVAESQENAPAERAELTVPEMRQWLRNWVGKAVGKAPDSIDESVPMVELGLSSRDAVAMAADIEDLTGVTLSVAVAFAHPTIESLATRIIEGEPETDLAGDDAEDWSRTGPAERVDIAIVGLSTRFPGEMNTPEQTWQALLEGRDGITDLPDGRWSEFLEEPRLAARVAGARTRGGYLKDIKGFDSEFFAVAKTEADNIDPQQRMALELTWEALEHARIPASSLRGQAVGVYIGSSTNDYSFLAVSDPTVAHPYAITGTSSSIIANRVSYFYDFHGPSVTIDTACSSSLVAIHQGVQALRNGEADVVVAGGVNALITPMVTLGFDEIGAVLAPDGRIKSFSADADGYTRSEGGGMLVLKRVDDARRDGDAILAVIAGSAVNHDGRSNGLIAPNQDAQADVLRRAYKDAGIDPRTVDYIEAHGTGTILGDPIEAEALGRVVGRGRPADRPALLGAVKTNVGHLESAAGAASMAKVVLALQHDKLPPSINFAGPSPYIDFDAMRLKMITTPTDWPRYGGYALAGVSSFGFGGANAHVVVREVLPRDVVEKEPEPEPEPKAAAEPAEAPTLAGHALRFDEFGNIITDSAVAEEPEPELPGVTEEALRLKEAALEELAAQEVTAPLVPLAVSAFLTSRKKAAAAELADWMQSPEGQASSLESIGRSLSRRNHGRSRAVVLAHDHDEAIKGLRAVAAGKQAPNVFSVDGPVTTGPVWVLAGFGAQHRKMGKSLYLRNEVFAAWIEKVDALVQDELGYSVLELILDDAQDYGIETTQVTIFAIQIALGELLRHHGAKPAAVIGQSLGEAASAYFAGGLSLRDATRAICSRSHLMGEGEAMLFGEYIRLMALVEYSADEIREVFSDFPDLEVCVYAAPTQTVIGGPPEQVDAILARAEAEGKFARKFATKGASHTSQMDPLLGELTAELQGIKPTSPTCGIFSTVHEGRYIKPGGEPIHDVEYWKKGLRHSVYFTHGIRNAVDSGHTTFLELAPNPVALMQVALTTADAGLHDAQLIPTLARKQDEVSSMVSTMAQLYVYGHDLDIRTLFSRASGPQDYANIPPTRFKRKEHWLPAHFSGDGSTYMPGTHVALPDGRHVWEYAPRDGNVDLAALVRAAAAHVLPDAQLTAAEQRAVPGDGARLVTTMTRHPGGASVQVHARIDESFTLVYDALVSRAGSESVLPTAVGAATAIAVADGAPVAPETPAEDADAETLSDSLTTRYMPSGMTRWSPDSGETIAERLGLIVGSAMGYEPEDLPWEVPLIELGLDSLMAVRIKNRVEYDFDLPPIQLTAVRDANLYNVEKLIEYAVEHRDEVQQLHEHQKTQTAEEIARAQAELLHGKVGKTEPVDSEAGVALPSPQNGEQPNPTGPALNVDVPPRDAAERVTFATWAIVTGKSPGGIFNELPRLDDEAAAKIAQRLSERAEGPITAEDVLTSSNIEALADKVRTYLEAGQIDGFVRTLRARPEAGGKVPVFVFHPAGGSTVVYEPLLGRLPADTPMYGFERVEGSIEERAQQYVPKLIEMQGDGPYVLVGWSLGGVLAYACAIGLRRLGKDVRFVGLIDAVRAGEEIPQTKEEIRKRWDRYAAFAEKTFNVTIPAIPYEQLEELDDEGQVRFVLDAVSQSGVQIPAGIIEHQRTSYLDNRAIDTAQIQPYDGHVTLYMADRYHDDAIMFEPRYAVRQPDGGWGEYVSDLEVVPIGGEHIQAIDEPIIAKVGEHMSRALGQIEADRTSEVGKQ
UniProt P9WNZ1, whole entry: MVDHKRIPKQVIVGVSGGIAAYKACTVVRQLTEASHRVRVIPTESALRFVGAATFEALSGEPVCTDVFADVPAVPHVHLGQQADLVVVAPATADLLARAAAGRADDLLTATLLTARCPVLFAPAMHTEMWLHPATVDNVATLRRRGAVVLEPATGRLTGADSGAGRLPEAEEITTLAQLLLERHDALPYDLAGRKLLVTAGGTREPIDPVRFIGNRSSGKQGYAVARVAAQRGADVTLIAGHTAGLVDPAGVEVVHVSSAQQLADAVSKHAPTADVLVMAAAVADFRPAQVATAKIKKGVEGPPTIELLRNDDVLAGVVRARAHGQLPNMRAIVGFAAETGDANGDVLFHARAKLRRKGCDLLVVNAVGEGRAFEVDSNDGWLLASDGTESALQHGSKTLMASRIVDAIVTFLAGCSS
UniProt Q4DA54, 1-478: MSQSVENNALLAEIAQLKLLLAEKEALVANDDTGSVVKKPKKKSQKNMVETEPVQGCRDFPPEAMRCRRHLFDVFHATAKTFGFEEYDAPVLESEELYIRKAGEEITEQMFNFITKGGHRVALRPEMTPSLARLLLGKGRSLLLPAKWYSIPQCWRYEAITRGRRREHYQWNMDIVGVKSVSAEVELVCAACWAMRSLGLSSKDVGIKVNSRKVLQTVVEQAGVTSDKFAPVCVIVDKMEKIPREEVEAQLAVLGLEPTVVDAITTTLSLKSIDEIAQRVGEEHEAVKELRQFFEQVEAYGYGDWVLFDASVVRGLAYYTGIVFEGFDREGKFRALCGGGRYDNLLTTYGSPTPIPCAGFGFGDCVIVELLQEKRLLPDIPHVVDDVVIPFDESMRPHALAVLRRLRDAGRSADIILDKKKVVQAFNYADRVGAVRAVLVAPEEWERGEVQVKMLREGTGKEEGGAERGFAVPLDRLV
UniProt P9WFT3, whole entry: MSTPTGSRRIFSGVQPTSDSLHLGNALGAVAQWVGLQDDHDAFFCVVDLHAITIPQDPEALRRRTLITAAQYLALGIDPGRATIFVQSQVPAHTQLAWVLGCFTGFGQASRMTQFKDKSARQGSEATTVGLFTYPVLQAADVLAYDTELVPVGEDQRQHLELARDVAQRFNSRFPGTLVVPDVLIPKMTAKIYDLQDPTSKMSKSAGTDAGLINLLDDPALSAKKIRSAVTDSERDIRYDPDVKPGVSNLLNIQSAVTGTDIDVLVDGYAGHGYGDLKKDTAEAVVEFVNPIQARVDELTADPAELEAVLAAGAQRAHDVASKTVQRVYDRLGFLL
UniProt P9WPC5, whole entry: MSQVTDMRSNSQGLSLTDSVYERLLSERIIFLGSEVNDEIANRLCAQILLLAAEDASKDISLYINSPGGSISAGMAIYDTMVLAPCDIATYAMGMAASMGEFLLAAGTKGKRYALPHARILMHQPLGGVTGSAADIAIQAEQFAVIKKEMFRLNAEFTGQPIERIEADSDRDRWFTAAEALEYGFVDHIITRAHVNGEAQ
UniProt P9WPC3, whole entry partner: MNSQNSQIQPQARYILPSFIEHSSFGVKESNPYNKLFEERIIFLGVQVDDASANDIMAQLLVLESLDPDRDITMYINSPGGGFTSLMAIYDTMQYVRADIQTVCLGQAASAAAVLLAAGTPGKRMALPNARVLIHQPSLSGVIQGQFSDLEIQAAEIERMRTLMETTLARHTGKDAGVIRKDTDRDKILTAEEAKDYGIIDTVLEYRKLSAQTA

Source: ChEMBL document CHEMBL3988442, “University of Dundee, Small-Polar-MMV Screening Library” (2021).

Values are the deposited “Percent Effect”, in %. The record does not define 0% and 100%; most values in the screen are far below 50% and negative numbers occur (in some assays of this library far below -100). The compounds are a random part of those screened.

A: 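Lysine-tRNA ligase, Plasmodium falciparum 3D7 (UniProt Q8IDJ8). Enzyme assay of the cytosolic lysyl-tRNA synthetase in 384-well plates, read by luminescence. Tested at 30 µM. Higher reads as stronger inhibition, judged from the few compounds that gave an IC50. Of about 69,000 compounds tested this way, about 49 (0.071%) reached 50% or more in at least one test.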
B: 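Enzyme assay of the thioesterase domain of polyketide synthase 13; the read-out is not stated. Target: Polyketide synthase Pks13, Mycobacterium tuberculosis (UniProt I6X8D2). Tested at 30 µM. The record gives no direction; the compounds picked for IC50 retests had high values, so higher reads as stronger inhibition. Size under these conditions: about 67,000 compounds, about 300 of them at 50% or above in at least one test.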
C: 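Coenzyme A biosynthesis protein CoaBC, Mycobacterium tuberculosis (UniProt P9WNZ1). Enzyme assay of CoaBC with a phosphate dye (Biomol Green) read at 650 nm. Concentration: 30 µM. Direction is inferred from only a few compounds that gave an IC50; most scored high, so higher reads as stronger inhibition. Most strong results did not repeat in a second test. About 67,000 compounds were tested under these conditions; 0.06% (about 40) showed 50% or more at least once.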
D: 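Histidine-tRNA ligase, Trypanosoma cruzi CL Brener (UniProt Q4DA54). Enzyme assay of histidyl-tRNA synthetase; the read-out is not stated. Concentration: 30 µM. Direction is inferred from retests: higher values go with stronger inhibition. Size under these conditions: about 69,000 compounds, about 31 of them at 50% or above in at least one test.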
E: 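Enzyme assay of tryptophanyl-tRNA synthetase; the read-out is not stated. Target: Tryptophan-tRNA ligase, Mycobacterium tuberculosis (UniProt P9WFT3). Tested at 10 µM. Direction is not recorded; retested compounds ran higher, which suggests that high means inhibition. About 65,000 compounds were tested under these conditions; 0.098% (about 64) showed 50% or more at least once.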
F: 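Protease assay of ClpP1P2, read by the AMC dye that it sets free. Target: ClpP1P2, Mycobacterium tuberculosis (UniProt P9WPC5 and UniProt P9WPC3). Compounds at 50 µM. Higher reads as stronger inhibition, judged from the few compounds that gave an IC50. Most other retested compounds had strongly negative values. Of about 69,000 compounds tested this way, about 10 (0.015%) reached 50% or more in at least one test.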

{"compound": "O=C(Cc1csc(N2CCNC2=O)n1)NC1(c2ccccc2)CCC1", "A": 4.376, "B": -14.76, "C": -1.932, "D": 5.806, "E": -2.182, "F": 5.319}
{"compound": "Cc1cc(C(=O)NCc2ccnc(N3CCN(C)CC3)c2)c(C)s1", "A": 4.806, "B": -2.605, "C": 1.554, "D": 0, "E": -0.5197, "F": 16.68}
{"compound": "O=C(CO)N1CCc2onc(Cn3cccn3)c2C1", "A": 1.449, "B": -19.3, "C": -0.1287, "D": -0.5464, "E": 0.4794, "F": 5.278}
{"compound": "O=C(O)C1CCN(C[C@H]2CC[C@@H](Cc3ccc4c(c3)OCO4)O2)CC1", "A": -1.67, "B": -3.885, "C": -56.36, "D": 1.622, "E": -0.4461, "F": -3.602}
{"compound": "NC(=O)C1CCCN(C(=O)c2cccc(OCc3cscn3)c2)C1", "stereo": "stereo not given", "A": 1.319, "B": -11, "C": 4.211, "D": 6.745, "E": -4.947, "F": -13.94}
{"compound": "COc1c(CNCc2ccc(N(C)C)nc2)c(C)nn1C", "A": -1.827, "B": -15.61, "C": 1.648, "D": 4.142, "E": 12.99, "F": -22.96}
{"compound": "CSC(C)C(=O)NCc1ccc(-n2cncn2)nc1", "stereo": "stereo not given", "A": 15.62, "B": -9.987, "C": 13.17, "D": -0.8403, "E": -4.638, "F": -7.212}
{"compound": "CS(=O)(=O)NCC1CCCCN1Cc1ccccc1C#N", "stereo": "stereo not given", "A": 3.519, "B": -32.78, "C": 5.119, "D": 3.061, "E": 3.753, "F": -2.649}
{"compound": "COc1cc(OC)cc(C2CC(=O)Nc3c2nc2n3CCCC2)c1", "stereo": "stereo not given", "A": 4.715, "B": 3.643, "C": 3.807, "D": 4.036, "E": 0.3228, "F": -32.68}
{"compound": "CC(C)c1nn2c(-c3cnn(C)c3)nnc2s1", "A": 2.106, "B": -7.291, "C": -3.767, "D": -43.56, "E": 8.521, "F": -3.221}
{"compound": "O=C(N1CCCC1)N1Cc2nccn2CC(COc2cccnc2)C1", "stereo": "stereo not given", "A": 0.401, "B": -2.711, "C": -10.73, "D": 3.81, "E": -5.94, "F": -18.55}
{"compound": "COc1ccc(Nc2nc3c(C)nn(C)c3c(=O)n2C)c(OC)c1", "A": 1.641, "B": -8.635, "C": 0.4545, "D": 0.8368, "E": 0.9114, "F": 1.18}
{"compound": "CC(C)n1c(=O)c2ccccc2n(CCCN(C)C)c1=O", "A": 3.238, "B": 3.164, "C": -0.3645, "D": 8.911, "E": 4.18, "F": -1.794}
{"compound": "Cn1cc(CN2CC[C@@H]3O[C@H](C(=O)N4CCOCC4)C[C@@H]32)cn1", "A": -0.2047, "B": -6.486, "C": -4.348, "D": 4.813, "E": -2.064, "F": -11.59}
{"compound": "CC(Cn1cccn1)NC(=O)CCc1nc(C(C)(C)C)no1", "stereo": "stereo not given", "A": 2.961, "B": 11.03, "C": 3.353, "D": 3.509, "E": -2.8, "F": 10.11}
{"compound": "O=C(c1ccon1)N1CCCCC1c1nc2cc(F)ccc2[nH]1", "stereo": "stereo not given", "A": 3.777, "B": -28.15, "C": 2.296, "D": 1.339, "E": 3.692, "F": -24.51}
{"compound": "N#Cc1ccc(N2CC3(CCN(c4nccs4)C3)C2)nc1", "A": 7.513, "B": -6.286, "D": 7.595, "E": 0.5394, "F": 3.347}
{"compound": "CCN(CC1CCCN(CCc2cccc(OC)c2)C1)C(=O)CSC", "stereo": "stereo not given", "A": 2.035, "B": -29.25, "C": -4.303, "D": 9.574, "E": 0.1805, "F": -9.948}
{"compound": "c1cc(C2CCN(c3cnccn3)CC2)ccn1", "A": -0.7362, "B": -4.971, "C": 7.534, "D": 2.571, "E": 16.84, "F": -11.31}

Once more, the final 2:

CCN(CC1CCCN(CCc2cccc(OC)c2)C1)C(=O)CSC (stereo not given) read A: 2.035%; B: -29.25%; C: -4.303%; D: 9.574%; E: 0.1805%; F: -9.948%.
c1cc(C2CCN(c3cnccn3)CC2)ccn1 read A: -0.7362%; B: -4.971%; C: 7.534%; D: 2.571%; E: 16.84%; F: -11.31%.